# Measurements from publication doi:10.1101/2020.03.02.973057.
# No constants are given. Whether binding was seen depends on the method and setting. A result given as binding can be weak or reduced; the word gives no strength. For some assays here: Sequences can lack the tags named with a protein.
# What was measured:
# [1] = target: EIF4G5, yeast two-hybrid fusion (Trypanosoma brucei) (UniProt Q57VY5); test: two-hybrid
# [2] = target: T1, MKT1, yeast two-hybrid fusion (Trypanosoma brucei) (UniProt Q587E3); test: two-hybrid
# T1 sequence: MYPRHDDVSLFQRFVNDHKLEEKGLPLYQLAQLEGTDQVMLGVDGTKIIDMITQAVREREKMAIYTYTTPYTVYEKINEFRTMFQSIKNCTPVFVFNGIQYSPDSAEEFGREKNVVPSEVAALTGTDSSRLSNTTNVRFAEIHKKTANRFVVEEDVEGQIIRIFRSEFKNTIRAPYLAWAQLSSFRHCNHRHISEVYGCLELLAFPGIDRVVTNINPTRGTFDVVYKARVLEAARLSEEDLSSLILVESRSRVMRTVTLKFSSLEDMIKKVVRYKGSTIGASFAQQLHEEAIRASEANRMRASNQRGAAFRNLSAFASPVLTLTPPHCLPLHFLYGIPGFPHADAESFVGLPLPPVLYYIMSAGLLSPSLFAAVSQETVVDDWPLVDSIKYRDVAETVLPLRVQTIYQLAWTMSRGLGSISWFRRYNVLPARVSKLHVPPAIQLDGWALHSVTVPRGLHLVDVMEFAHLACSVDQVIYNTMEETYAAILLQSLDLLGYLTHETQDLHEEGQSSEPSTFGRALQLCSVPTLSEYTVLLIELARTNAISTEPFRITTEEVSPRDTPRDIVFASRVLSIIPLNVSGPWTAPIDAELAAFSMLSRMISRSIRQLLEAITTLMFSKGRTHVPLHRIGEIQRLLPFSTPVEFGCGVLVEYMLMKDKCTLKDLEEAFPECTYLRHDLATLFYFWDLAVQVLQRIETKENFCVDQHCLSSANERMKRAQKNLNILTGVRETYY
Substance,binding [1],binding [2]
"EIF4E6, yeast two-hybrid fusion (from UniProt Q57V43)",binds,–
"EIF4G5, yeast two-hybrid fusion (from UniProt Q57VY5)",–,binds
